Measurements: the supplement of paper PMC7877785
± gives the uncertainty stated by the source. The uncertainty is large for many entries.

Assay: self-splicing fitness, log relative to wild type (ln ratio); higher = more splicing; Tetrahymena group I intron in knt gene, E. coli kanamycin selection, DiMSum; sequences stand for … in CUCUCU…GGAGGGAAAAGUUAUCAGGCAUGCACCUGGUAGCUAGUCUUUAAACCAAUAGAUUGCAUCGGUUUAAAAGGCAAGACCGUCAAAUUGCGGGAAAGGGGUCAACAGCCGUUCAGUACCAAGUCUCAGGGGAAACUUUGAGAUGGCCUUGCAAAGGGUAUGGUAAUAAGCUGACGGACAUGGUCCUAACCACGCAGCCAAGUCCUAAGUCAACAGAUCUUCUGUUGAUAUGGAUGCAGUUCACAGACUAAAUGUCGGUCGGGGAAGAUGUAUUCUUCUCAUAAGAUAUAGUCGGACCUCUCCUUAAUGGGAGCUAGCGGAUGAAGUGAUGCAACACUGGAGCCGCUGGGAACUAAUUUGUAUGCGAAAGUAUAUUGAUUAGUUUUGGAGUACUCGUGGUCG
Summary of the method: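 Colonies from six replicate transformations of E. coli BL21(DE3) were pooled and amplicon-sequenced on an Illumina HiSeq 2500. The library placed an intron with all eight P1ex-region nucleotides randomised inside the knt kanamycin-resistance gene on pET-22b(+), and cells grew overnight at 37°C or 30°C on LB agar with or without 25 μg/mL kanamycin (plus 100 μg/mL carbenicillin, 50 μM IPTG, 0.2% rhamnose). Fitness is the DiMSum error-weighted combination of wild-type-normalised replicate fold changes, kanamycin versus none.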

Row | Sequence | self-splicing fitness (ln) (30 °C) | self-splicing fitness (ln) (37 °C)
1 | AAAAAGCAAUAUUACGUUGU | -3.71 ± 0.15 | -2.01 ± 0.14
2 | GCUAAGCAAUAUUACGCCCA | -1.23 ± 0.52 | -1.25 ± 0.63
3 | CUAUAGCAAUAUUACGAUAC | -4.66 ± 1 | –
4 | CAGGAGCAAUAUUACGCUAC | – | -1.79 ± 0.82
5 | UUAAAGCAAUAUUACGGGGU | -4.99 ± 0.51 | –
6 | GAUGAGCAAUAUUACGAACC | -0.828 ± 1.4 | –
7 | GACUAGCAAUAUUACGCGGC | – | -1.29 ± 0.62
8 | AUCGAGCAAUAUUACGAUCC | – | -0.595 ± 1.4
9 | AACGAGCAAUAUUACGGCCC | -3.83 ± 1 | -0.693 ± 1.4
10 | UUUUAGCAAUAUUACGAUGC | -3.53 ± 0.6 | –
11 | AAUAAGCAAUAUUACGUGCC | -0.624 ± 0.54 | –
12 | GGAUAGCAAUAUUACGCCUG | – | -0.927 ± 1.2
13 | UGGCAGCAAUAUUACGCUAC | – | -2.54 ± 0.51
14 | CGUGAGCAAUAUUACGUUCC | – | -3.16 ± 0.53
15 | CCGAAGCAAUAUUACGCCAC | -3.48 ± 1.1 | –
16 | CCCGAGCAAUAUUACGCGCG | -2.29 ± 0.61 | -3.21 ± 0.52
17 | GCGGAGCAAUAUUACGGUAC | -1.39 ± 0.63 | –
18 | UCAGAGCAAUAUUACGCGAC | – | -3.15 ± 0.6
19 | GUGCAGCAAUAUUACGCAUC | -4.18 ± 0.72 | –
20 | AAGGAGCAAUAUUACGAAAU | -2.26 ± 0.14 | -3 ± 0.29
21 | UUAUAGCAAUAUUACGAUAC | -3.16 ± 0.61 | –
22 | CAUGAGCAAUAUUACGGGAU | – | -1.53 ± 0.55
23 | AGUAAGCAAUAUUACGAAUU | – | -2.49 ± 0.55
24 | ACGCAGCAAUAUUACGCGUG | -3.43 ± 0.18 | -2.07 ± 0.17
25 | UGGGAGCAAUAUUACGGAAA | – | -2.18 ± 0.64

Records 13–17, quoted:
Row | Sequence | self-splicing fitness (ln) (30 °C) | self-splicing fitness (ln) (37 °C)
13 | UGGCAGCAAUAUUACGCUAC | – | -2.54 ± 0.51
14 | CGUGAGCAAUAUUACGUUCC | – | -3.16 ± 0.53
15 | CCGAAGCAAUAUUACGCCAC | -3.48 ± 1.1 | –
16 | CCCGAGCAAUAUUACGCGCG | -2.29 ± 0.61 | -3.21 ± 0.52
17 | GCGGAGCAAUAUUACGGUAC | -1.39 ± 0.63 | –

The list goes on:

Row | Sequence | self-splicing fitness (ln) (30 °C) | self-splicing fitness (ln) (37 °C)
26 | UCGAAGCAAUAUUACGCUAC | – | -2.52 ± 0.54
27 | ACAUAGCAAUAUUACGUUAC | – | -2.15 ± 0.72
28 | GCAGAGCAAUAUUACGCUGG | -2.58 ± 0.64 | -1.12 ± 0.51
29 | UAUUAGCAAUAUUACGGCCC | – | -1.09 ± 0.83
30 | CAGGAGCAAUAUUACGACAC | -3.19 ± 1.2 | –
31 | CGACAGCAAUAUUACGCUAC | -3.46 ± 0.73 | –
32 | CUCAAGCAAUAUUACGGCGC | -4.52 ± 0.51 | –
33 | UUCUAGCAAUAUUACGUGGC | – | -2.2 ± 0.66
34 | GAGAAGCAAUAUUACGGGGG | -2.71 ± 0.54 | –
35 | UCAAAGCAAUAUUACGGCCU | -4.57 ± 0.51 | –
36 | AGGGAGCAAUAUUACGAGCU | – | -2.55 ± 0.54
37 | GGAAAGCAAUAUUACGCCUU | -1.07 ± 0.29 | -1.29 ± 0.38
38 | UCGUAGCAAUAUUACGUGAC | – | -2.63 ± 0.54
39 | ACGGAGCAAUAUUACGAACA | – | -1.54 ± 1.2
40 | AGGCAGCAAUAUUACGGCCC | -2.44 ± 0.55 | -1.38 ± 0.69
41 | GCCAAGCAAUAUUACGCCUA | -0.609 ± 0.16 | -0.61 ± 0.18
42 | UGCUAGCAAUAUUACGGAUC | -4.47 ± 0.72 | –
43 | CGUGAGCAAUAUUACGCUAA | -2.21 ± 1.1 | –
44 | AAGUAGCAAUAUUACGCUAG | -1.57 ± 0.17 | -1.04 ± 0.2
45 | CUCCAGCAAUAUUACGCCUC | -2.33 ± 0.64 | -1.83 ± 0.58
46 | GGUCAGCAAUAUUACGUUUC | 0.000828 ± 0.13 | -0.437 ± 0.14
47 | CCGGAGCAAUAUUACGACUC | – | -1.18 ± 0.79
48 | AUAAAGCAAUAUUACGAUCC | -1.21 ± 0.2 | -0.716 ± 0.22
49 | GGUCAGCAAUAUUACGCGGC | -3.64 ± 0.54 | -0.759 ± 0.64
50 | UUCGAGCAAUAUUACGGAGC | -4.16 ± 0.6 | –

Row | Sequence | self-splicing fitness (ln) (30 °C) | self-splicing fitness (ln) (37 °C)
51 | GUUCAGCAAUAUUACGCGGU | -1.52 ± 0.11 | -1.69 ± 0.14
52 | UUAUAGCAAUAUUACGAGCU | -3.61 ± 0.54 | –
53 | AAGGAGCAAUAUUACGUGUC | -4.89 ± 0.51 | –
54 | UACGAGCAAUAUUACGCUAG | -3.21 ± 0.53 | –
55 | UAAGAGCAAUAUUACGAAGU | -3.61 ± 0.31 | -1.85 ± 0.41
56 | AGCUAGCAAUAUUACGCGCU | -1.96 ± 0.87 | -2.3 ± 1.1
57 | ACUGAGCAAUAUUACGUACC | -1.65 ± 0.55 | -1.83 ± 1.1
58 | GCCAAGCAAUAUUACGGCCC | -2.13 ± 0.2 | -1.57 ± 0.22
59 | UCUGAGCAAUAUUACGUCCU | – | -2.15 ± 0.51
60 | GAGGAGCAAUAUUACGGAGG | -3.98 ± 0.53 | –
61 | AUCUAGCAAUAUUACGAGAA | -1.52 ± 1.2 | -1.35 ± 0.75
62 | GGCGAGCAAUAUUACGGACC | -2.14 ± 0.52 | –
63 | UUCGAGCAAUAUUACGUAUU | -4.02 ± 0.59 | –
64 | CUUCAGCAAUAUUACGGUCC | – | -1.79 ± 1.2
65 | UCAUAGCAAUAUUACGACAC | -4.1 ± 0.59 | –
66 | GCGGAGCAAUAUUACGGGGG | -1.85 ± 0.59 | -2.68 ± 0.53
67 | GCGUAGCAAUAUUACGGGCC | – | -2.91 ± 0.74
68 | CUGAAGCAAUAUUACGAACC | -0.0743 ± 0.58 | –
69 | GUCGAGCAAUAUUACGCCGC | -3.06 ± 0.63 | -2.41 ± 0.55
70 | UGCCAGCAAUAUUACGAAUC | – | -2.77 ± 0.75
71 | GUACAGCAAUAUUACGUCAC | -3.78 ± 0.52 | –
72 | GGGGAGCAAUAUUACGCCGG | -3.72 ± 0.73 | -0.928 ± 0.42
73 | AACGAGCAAUAUUACGCUCG | – | -2.47 ± 0.62
74 | UAUUAGCAAUAUUACGCUGA | -1.66 ± 0.75 | -2.4 ± 0.64
75 | GUGUAGCAAUAUUACGCCUC | -0.868 ± 1.4 | –

Row | Sequence | self-splicing fitness (ln) (30 °C) | self-splicing fitness (ln) (37 °C)
76 | GGGAAGCAAUAUUACGCCGG | – | -1.71 ± 0.55
77 | UCUCAGCAAUAUUACGGCUC | -0.631 ± 0.87 | –
78 | AGUGAGCAAUAUUACGUCUC | -3.59 ± 0.52 | –
79 | GUUUAGCAAUAUUACGCUAC | – | -1.09 ± 0.65
80 | AUAUAGCAAUAUUACGUAAG | -1.61 ± 0.14 | -0.705 ± 0.19
81 | GUAGAGCAAUAUUACGCAGA | -2.23 ± 0.69 | –
82 | CUGGAGCAAUAUUACGGUCC | -2.42 ± 1.2 | -1.37 ± 0.69
83 | AUGCAGCAAUAUUACGGGUU | -1.98 ± 0.075 | -1.29 ± 0.096
84 | GAAUAGCAAUAUUACGACUC | -0.601 ± 0.13 | -1.34 ± 0.18
85 | CUAUAGCAAUAUUACGACUC | -3.69 ± 0.59 | –
86 | GGGUAGCAAUAUUACGAAGG | -3.25 ± 0.51 | -1.51 ± 0.84
87 | CCCUAGCAAUAUUACGGCCU | – | -3.49 ± 0.52
88 | CCCGAGCAAUAUUACGGCCU | – | -2.86 ± 0.61
89 | AAAGAGCAAUAUUACGAAUA | – | -1.24 ± 0.51
90 | CAGCAGCAAUAUUACGUACG | -0.121 ± 0.08 | 0.866 ± 0.11
91 | AAAGAGCAAUAUUACGCGGC | -4.18 ± 0.72 | –
92 | CUUGAGCAAUAUUACGUUCA | -2.84 ± 0.75 | -2.36 ± 0.63
93 | GUAGAGCAAUAUUACGUGGA | -3.89 ± 0.53 | –
94 | AUGGAGCAAUAUUACGAAAA | -2.65 ± 1.1 | –
95 | UCCAAGCAAUAUUACGGCCC | -2.47 ± 0.59 | –
96 | GCUGAGCAAUAUUACGCCCA | -2.02 ± 1.2 | -1.74 ± 0.6
97 | GUGGAGCAAUAUUACGGGCG | -4.36 ± 1 | -2.64 ± 1.1
98 | CGGGAGCAAUAUUACGCAUC | – | -1.32 ± 0.54
99 | GCCGAGCAAUAUUACGGUCG | – | -4 ± 0.51
100 | GUAUAGCAAUAUUACGAUGG | -3.43 ± 0.35 | -0.958 ± 0.24

Row | Sequence | self-splicing fitness (ln) (30 °C) | self-splicing fitness (ln) (37 °C)
101 | AGCGAGCAAUAUUACGCCAG | -2.62 ± 0.62 | -3.25 ± 0.53
102 | GUUUAGCAAUAUUACGAAGA | -3.51 ± 0.76 | –
103 | GCAUAGCAAUAUUACGCAGC | -2.94 ± 0.54 | –
104 | AACCAGCAAUAUUACGGGUG | -1.14 ± 0.046 | -0.409 ± 0.064
105 | UUCUAGCAAUAUUACGGUCU | -4.46 ± 1 | –
106 | GGGAAGCAAUAUUACGGCAG | – | -2.07 ± 1.1
107 | CCUGAGCAAUAUUACGAAAC | – | -2.2 ± 0.5
108 | GGACAGCAAUAUUACGCGCG | 0.181 ± 0.094 | -0.742 ± 0.11
109 | GGGGAGCAAUAUUACGUCGA | – | -3.13 ± 0.74
110 | UCCUAGCAAUAUUACGAGUC | – | -3.3 ± 0.52
111 | GGUGAGCAAUAUUACGACCC | -4.12 ± 0.6 | -1.89 ± 0.53
112 | UAUGAGCAAUAUUACGAAAU | – | -3.51 ± 0.59
113 | GGGCAGCAAUAUUACGAGCU | -2.69 ± 0.22 | 0.481 ± 0.13
114 | CACAAGCAAUAUUACGCCCC | -2 ± 0.57 | -1.35 ± 0.71
115 | CGAGAGCAAUAUUACGGGCU | -3.67 ± 0.22 | -2.18 ± 0.28
116 | GAUAAGCAAUAUUACGAGAC | -2.71 ± 0.79 | -2.1 ± 0.64
117 | CGUUAGCAAUAUUACGCUCC | -1.81 ± 0.68 | -0.304 ± 0.93
118 | GUUGAGCAAUAUUACGUGCC | – | -2.32 ± 0.8
119 | UGCGAGCAAUAUUACGACCC | -1.14 ± 0.76 | –
120 | UAAGAGCAAUAUUACGCCCA | -2.62 ± 0.26 | -2.09 ± 0.41
121 | AAAUAGCAAUAUUACGAGAA | -2.43 ± 0.71 | –
